Data set [1] has as its system L929 cells. Nature of the data set: Cellular uptake assay. The class given is cell-based, mouse. The note with it: L929, 100 μM, 1 h.
In data set [2] the test system is U118MG cells. The data set is described as follows: Cellular uptake assay. The class given is cell-based, human. The note with it: 100 μM, 1 h.
Data set [3] relates to U87MG glioblastoma cells. Nature of the data set: MTT cell viability, dark and PDT. The class given is cell-based, human. The note with it: for In vitro TI = IC50,dark,healthycells/IC50,light,cancercells / SI = IC50,light,healthycells/IC50,light,cancercells: L929 vs U87MG; for PI, phototoxicity index = IC50,dark/IC50,light: U87MG. The protocol:
(§1) The time- and concentration-dependent effects of NSeAze and NSeMorph on glioblastoma cells were determined by using the MTT assay (Figure S7). In this regard, U118MG and U87MG cells were administered with NSeMorph (0.5–20 μM) and NSeAze (0.01–2.5 μM) for 24 h to evaluate their dark toxicity. Before PDT application, both cell lines were treated as indicated for 1 h and then exposed to 660 nm LED light for 2 and 1 h, respectively (Figure ). Following overnight incubation, the resulting cell viability was calculated and compared to the effect of both compounds in the absence of irradiation. […]
(§2) Cell Culture and Treatment
(§3) Human glioblastoma cell lines (U118MG and U87MG) and healthy mouse fibroblast cells (L929) were cultured in DMEM high glucose medium supplemented with 10% fetal bovine serum (FBS), 2 mM glutamine, 1% penicillin/stremptomycin, 0.5% amphotericin B, and incubated at 37 °C with 5% CO2. NSeMorph and NSeAze were dissolved in cell culture-grade DMSO and further diluted in complete medium for experimental use. For phototoxicity analysis, cells were administered with NSeMorph […]
(§4) mW/cm2) irradiation for 2 h in NSeMorph-treated groups and 1 h in NSeAze-treated groups. Then, each group were incubated for further 24 h in the dark to allow for resting. On the other hand, the dark toxicity of both agents was detected following the same treatment under identical conditions without LED irradiation. To determine the involvement of distinct ROS types, cells were pretreated for 1 h with selective […]
(§5) scavengers prior to photosensitizer exposure. The scavengers included NAC (5 mM), NaN3 (5 mM), histidine (5 mM), Tiron (100 µM), mannitol (25 mM) and Trolox (25 µM).
(§6) Cell viability was then assessed following irradiation. For index calculations, all cells were treated with the increasing concentrations (0.5-500 µM) of NSeMorph and NSeAze for 24 h. Final DMSO concentrations were kept below 0.5% (v/v) in all […]
(§7) PI=IC50, dark /IC50, light
(§8) SI= IC50, light, healthy cells/IC50, light, cancer cells
(§9) TI= IC50, dark, healthy cells/IC50, light, cancer cells
(§10) The viability of cells treated with NSeMorph and NSeAze was determined with MTT (3-[4,5-dimethylthiazol-2-yl]-2,5-diphenyltetrazoliumbromide) assay. Following the administration of both compounds, the medium was discarded and cells were treated with fresh media containing MTT (0.5 mg/ml) for 2-4 h at 37 °C. Formazan crystals were then solubilized in 10% SDS in 0.01 N HCl, and absorbance was measured at 490 and 570 nm wavelength using microplate reader (Multiskan Sky, Thermo Scientific). Data were normalized to vehicle (DMSO)-treated controls. IC50 values were calculated using nonlinear regression analysis in GraphPad Prism 9.02 (GraphPad Software Inc.). All experiments were performed in technical and biological replicates

In data set [4] the test system is U118MG glioblastoma cells. Nature of the data set: MTT cell viability, dark and PDT. Format: cell-based, human. The note with it: for In vitro TI = IC50,dark,healthycells/IC50,light,cancercells / SI = IC50,light,healthycells/IC50,light,cancercells: L929 vs U118MG; for PI, phototoxicity index = IC50,dark/IC50,light: U118MG. The protocol:
as §1, §2, §3, §4, §5, §6, §7, §8, §9, §10

Data set [5] has as its system U118MG cells. The data set is described as follows: Subcellular co-localization by confocal microscopy (PCC). Format: cell-based, human. As to conditions: 2.5 μM; for PCC, lysosomal colocalization: across time points 0.5–4 h.
The subject of data set [6] is U87MG cells. The data set is described as follows: Cellular uptake assay. Format: cell-based, human. The note with it: 100 μM, 1 h.
Data set [7] in a line: Singlet oxygen quantum yield with ADMDA trap.
In data set [8] the test system is U87MG cells. The data set is described as follows: Subcellular co-localization by confocal microscopy (PCC). Format: cell-based, human. As to conditions: 2.5 μM; for PCC, lysosomal colocalization: across time points 0.5–4 h.
The nature of data set [9]: DHR123 oxidation, cell-free superoxide (type I ROS) detection. As to conditions: PBS (pH 7.4), 660 nm LED, 100 s.

Where “and” joins values, the source holds several entries; their conditions need not be identical. Equal values may be shown once.

Consider `c1cc2nc3ccc(=[N+]4CCC4)cc-3[se]c2cc1N1CCC1` [NSeAze], for which the “Cellular uptake (%)” value was approximately 22% in data set [1], 34–38% in data set [2] and 34–38% in data set [6]. In addition, the “In vitro TI = IC50,dark,healthycells/IC50,light,cancercells” value in data set [3] is 287.6 and 288; in [4], 281.1 and 281. Besides, the figures for the “SI = IC50,light,healthycells/IC50,light,cancercells” value in data set [3] and in [4] were 0.99 and 0.98, respectively. Also, the “PI, phototoxicity index = IC50,dark/IC50,light” value in data set [3] is > 270 and 144.7 and 145; in data set [4], > 245 and 131. Besides, the “Peak PCC, colocalization with mitochondria” value in data set [5] (1–2 h) and in data set [8] (1–2 h) was 0.84–0.89 throughout. Also, the “PCC, lysosomal colocalization” value in data set [5] and in data set [8] was 0.79–0.84 each time. Besides, the “φΔ (%) singlet oxygen quantum yield” value in data set [7] is on record as 31%. In addition, in data set [9], the “Increase of oxidized DHR123 emission upon irradiation” value turned out to be 27 fold.

`c1cc2nc3ccc(=[N+]4CCOCC4)cc-3[se]c2cc1N1CCOCC1` [NSeMorph]: the “Cellular uptake (%)” value in data set [1], in data set [2] and in data set [6] was less than 2% each time. Also, the “In vitro TI = IC50,dark,healthycells/IC50,light,cancercells” value in [3] was more than 32; in data set [4], > 62.3 and >62. Besides, the “SI = IC50,light,healthycells/IC50,light,cancercells” value in [3] is recorded as more than 1.26; in data set [4], more than 2.49. For the same compound, the “PI, phototoxicity index = IC50,dark/IC50,light” value was more than 31 in data set [3]; > 46.7 and 46.7 and 47 in data set [4]. Besides, the “PCC, colocalization with mitochondria” value in data set [5] (4 h) was found to be 0.69; in data set [5] (early phase (0.5–1 h)) it was 0.81; in [8] (early phase (0.5–1 h)), 0.78. The “PCC, lysosomal colocalization” value in [5] and in data set [8] was 0.75 to 0.82 each time. In addition, in [7], the “φΔ (%) singlet oxygen quantum yield” value is 75%. Further, the “Increase of oxidized DHR123 emission upon irradiation” value in data set [9] came out at 13 fold.

The values are drawn from article PMC12648288, “Drastic Impact of Donor Substituents on Xanthenes in the PDT of Glioblastoma” (JACS Au, 2025).
